Assay results published in patent US20100226922A1, “SPECIFIC PROTEASE INHIBITORS AND THEIR USE IN CANCER THERAPY” (priority 2006, published 2010).
These are yes or no findings as the source states them, for the method shown. For part of these data: In cells and extracts the contact can be indirect. Some binding calls cover weakened binding; strength is not graded here. For part of these data: Tags and fused reporters may be left off the sequences shown.

Protein sequences, listed by entry. Tags and fused reporters are not part of them. Residues count along the entry.
UniProt P35222, residues 2-781: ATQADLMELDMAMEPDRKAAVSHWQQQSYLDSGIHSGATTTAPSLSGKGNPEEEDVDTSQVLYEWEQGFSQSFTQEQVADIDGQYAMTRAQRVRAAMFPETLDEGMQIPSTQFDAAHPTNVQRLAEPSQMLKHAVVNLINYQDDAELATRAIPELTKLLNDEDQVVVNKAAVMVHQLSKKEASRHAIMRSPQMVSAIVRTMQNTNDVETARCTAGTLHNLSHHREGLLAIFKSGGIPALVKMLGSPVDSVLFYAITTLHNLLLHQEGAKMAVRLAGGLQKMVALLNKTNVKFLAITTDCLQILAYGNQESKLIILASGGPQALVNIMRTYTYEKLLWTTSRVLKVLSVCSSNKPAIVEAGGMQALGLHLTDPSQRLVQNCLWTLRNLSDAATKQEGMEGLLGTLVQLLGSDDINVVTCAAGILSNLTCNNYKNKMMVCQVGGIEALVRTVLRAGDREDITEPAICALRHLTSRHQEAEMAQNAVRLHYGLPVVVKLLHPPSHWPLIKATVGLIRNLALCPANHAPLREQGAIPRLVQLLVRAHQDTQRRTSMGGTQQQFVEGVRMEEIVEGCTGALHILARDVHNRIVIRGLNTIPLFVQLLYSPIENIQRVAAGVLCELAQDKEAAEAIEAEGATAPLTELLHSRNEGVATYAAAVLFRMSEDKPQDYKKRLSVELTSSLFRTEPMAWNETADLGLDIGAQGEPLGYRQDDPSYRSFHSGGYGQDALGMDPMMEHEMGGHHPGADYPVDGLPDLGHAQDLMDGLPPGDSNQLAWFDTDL
UniProt Q9UJU2: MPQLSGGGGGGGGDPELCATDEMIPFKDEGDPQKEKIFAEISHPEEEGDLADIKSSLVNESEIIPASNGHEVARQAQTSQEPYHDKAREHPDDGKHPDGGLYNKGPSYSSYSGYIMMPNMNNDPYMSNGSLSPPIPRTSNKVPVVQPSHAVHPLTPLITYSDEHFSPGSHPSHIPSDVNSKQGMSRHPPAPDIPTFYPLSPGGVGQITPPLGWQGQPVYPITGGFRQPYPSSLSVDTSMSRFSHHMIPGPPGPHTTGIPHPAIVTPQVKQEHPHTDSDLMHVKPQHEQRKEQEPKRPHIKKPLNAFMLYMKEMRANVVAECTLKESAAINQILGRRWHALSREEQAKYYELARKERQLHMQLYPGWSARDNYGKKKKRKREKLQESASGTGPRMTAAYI

How the values were obtained:
[1] = target: T1, EpIC-YFP (intracellular domain of EpCAM starting with serine 289 fused to YFP) (UniProt P16422); experiment: nuclear extracts of HEK293 cells expressing EpIC-YFP; method not detailed
T1 sequence (looked up): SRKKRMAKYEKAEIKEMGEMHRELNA

[2] = target: T2, EpIC, intracellular domain of EpCAM (human) (UniProt P16422); experiment: native two-dimensional gel electrophoresis of FaDu nuclear complexes (co-migration)
T2 sequence (looked up): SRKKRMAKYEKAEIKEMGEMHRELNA

[3] = target: T3, EpCAM (epithelial cell adhesion molecule), full-length (human) (UniProt P16422); experiment: co-immunoprecipitation from HEK293-EpCAM cells
T3 sequence (looked up): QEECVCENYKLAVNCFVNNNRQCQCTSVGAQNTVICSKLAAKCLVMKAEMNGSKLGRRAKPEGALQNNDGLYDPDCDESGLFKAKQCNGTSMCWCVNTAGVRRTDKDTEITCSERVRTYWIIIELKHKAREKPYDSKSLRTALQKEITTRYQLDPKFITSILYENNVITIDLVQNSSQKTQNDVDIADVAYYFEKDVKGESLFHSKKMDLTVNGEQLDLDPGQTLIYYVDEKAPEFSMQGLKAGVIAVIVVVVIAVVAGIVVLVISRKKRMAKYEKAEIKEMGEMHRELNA

[4] = target: T2, EpIC, intracellular domain of EpCAM (human); experiment: yeast two-hybrid, EpIC bait in pGBKT7, FHL2 cDNA clone in pACT2
[5] = target: T3, EpCAM (epithelial cell adhesion molecule), full-length (human); experiment: reciprocal co-immunoprecipitation with EpEX- and FHL2-specific antibodies in HEK293 transfectants
[6] = target: β-catenin (human) (UniProt P35222); experiment: co-immunoprecipitation in HEK293-EpCAM-HA-FHL2 cells
[7] = target: T3, EpCAM (epithelial cell adhesion molecule), full-length (human); experiment: GST pull-down from HeLa cell extracts expressing EpCAM

Molecule: β-catenin (from UniProt P35222 2-781)
- binding [1]: binds
- binding [2]: binds

Molecule: lymphoid enhancer factor Lef (from UniProt Q9UJU2 1-399)
- binding [1]: binds

B1: four and a half LIM domain protein FHL2 (other, human, UniProt Q14192 1-279, looked up)
chain: MTERFDCHHCNESLFGKKYILREESPYCVVCFETLFANTCEECGKPIGCDCKDLSYKDRHWHEACFHCSQCRNSLVDKPFAAKEDQLLCTDCYSNEYSSKCQECKKTIMPGTRKMEYKGSSWHETCFICHRCQQPIGTKSFIPKDNQNFCVPCYEKQHAMQCVQCKKPITTGGVTYREQPWHKECFVCTACRKQLSGQRFTARDDFAYCLNCFCDLYAKKCAGCTNPISGLGGTKYISFEERQWHNDCFNCKKCSLSLVGRGFLTERDDILCPDCGKDI
- binding [3]: binds
- binding [4]: binds
- binding [2]: binds
- binding [5]: binds

B2: HA-tagged FHL2 (protein, human, UniProt Q14192 1-279, looked up, not shown: small tags and cut ends)
chain: MTERFDCHHCNESLFGKKYILREESPYCVVCFETLFANTCEECGKPIGCDCKDLSYKDRHWHEACFHCSQCRNSLVDKPFAAKEDQLLCTDCYSNEYSSKCQECKKTIMPGTRKMEYKGSSWHETCFICHRCQQPIGTKSFIPKDNQNFCVPCYEKQHAMQCVQCKKPITTGGVTYREQPWHKECFVCTACRKQLSGQRFTARDDFAYCLNCFCDLYAKKCAGCTNPISGLGGTKYISFEERQWHNDCFNCKKCSLSLVGRGFLTERDDILCPDCGKDI
- binding [6]: binds

B3: wild-type FHL2 as recombinant GST-fusion (protein, UniProt Q14192 1-279, looked up, not shown: a dimerising Fc or GST)
chain: MTERFDCHHCNESLFGKKYILREESPYCVVCFETLFANTCEECGKPIGCDCKDLSYKDRHWHEACFHCSQCRNSLVDKPFAAKEDQLLCTDCYSNEYSSKCQECKKTIMPGTRKMEYKGSSWHETCFICHRCQQPIGTKSFIPKDNQNFCVPCYEKQHAMQCVQCKKPITTGGVTYREQPWHKECFVCTACRKQLSGQRFTARDDFAYCLNCFCDLYAKKCAGCTNPISGLGGTKYISFEERQWHNDCFNCKKCSLSLVGRGFLTERDDILCPDCGKDI
- binding [7]: binds
